These are yes or no findings as the source states them, for the method shown. Binding seen in cells or lysates may run through a third protein. A result given as binding can be weak or reduced; the word gives no strength.

Protein sequences, listed by entry. Tags and fused reporters are not part of them. Lines headed by an entry give the natural chain unless they say otherwise; changes in a name come on top.
UniProt P53327: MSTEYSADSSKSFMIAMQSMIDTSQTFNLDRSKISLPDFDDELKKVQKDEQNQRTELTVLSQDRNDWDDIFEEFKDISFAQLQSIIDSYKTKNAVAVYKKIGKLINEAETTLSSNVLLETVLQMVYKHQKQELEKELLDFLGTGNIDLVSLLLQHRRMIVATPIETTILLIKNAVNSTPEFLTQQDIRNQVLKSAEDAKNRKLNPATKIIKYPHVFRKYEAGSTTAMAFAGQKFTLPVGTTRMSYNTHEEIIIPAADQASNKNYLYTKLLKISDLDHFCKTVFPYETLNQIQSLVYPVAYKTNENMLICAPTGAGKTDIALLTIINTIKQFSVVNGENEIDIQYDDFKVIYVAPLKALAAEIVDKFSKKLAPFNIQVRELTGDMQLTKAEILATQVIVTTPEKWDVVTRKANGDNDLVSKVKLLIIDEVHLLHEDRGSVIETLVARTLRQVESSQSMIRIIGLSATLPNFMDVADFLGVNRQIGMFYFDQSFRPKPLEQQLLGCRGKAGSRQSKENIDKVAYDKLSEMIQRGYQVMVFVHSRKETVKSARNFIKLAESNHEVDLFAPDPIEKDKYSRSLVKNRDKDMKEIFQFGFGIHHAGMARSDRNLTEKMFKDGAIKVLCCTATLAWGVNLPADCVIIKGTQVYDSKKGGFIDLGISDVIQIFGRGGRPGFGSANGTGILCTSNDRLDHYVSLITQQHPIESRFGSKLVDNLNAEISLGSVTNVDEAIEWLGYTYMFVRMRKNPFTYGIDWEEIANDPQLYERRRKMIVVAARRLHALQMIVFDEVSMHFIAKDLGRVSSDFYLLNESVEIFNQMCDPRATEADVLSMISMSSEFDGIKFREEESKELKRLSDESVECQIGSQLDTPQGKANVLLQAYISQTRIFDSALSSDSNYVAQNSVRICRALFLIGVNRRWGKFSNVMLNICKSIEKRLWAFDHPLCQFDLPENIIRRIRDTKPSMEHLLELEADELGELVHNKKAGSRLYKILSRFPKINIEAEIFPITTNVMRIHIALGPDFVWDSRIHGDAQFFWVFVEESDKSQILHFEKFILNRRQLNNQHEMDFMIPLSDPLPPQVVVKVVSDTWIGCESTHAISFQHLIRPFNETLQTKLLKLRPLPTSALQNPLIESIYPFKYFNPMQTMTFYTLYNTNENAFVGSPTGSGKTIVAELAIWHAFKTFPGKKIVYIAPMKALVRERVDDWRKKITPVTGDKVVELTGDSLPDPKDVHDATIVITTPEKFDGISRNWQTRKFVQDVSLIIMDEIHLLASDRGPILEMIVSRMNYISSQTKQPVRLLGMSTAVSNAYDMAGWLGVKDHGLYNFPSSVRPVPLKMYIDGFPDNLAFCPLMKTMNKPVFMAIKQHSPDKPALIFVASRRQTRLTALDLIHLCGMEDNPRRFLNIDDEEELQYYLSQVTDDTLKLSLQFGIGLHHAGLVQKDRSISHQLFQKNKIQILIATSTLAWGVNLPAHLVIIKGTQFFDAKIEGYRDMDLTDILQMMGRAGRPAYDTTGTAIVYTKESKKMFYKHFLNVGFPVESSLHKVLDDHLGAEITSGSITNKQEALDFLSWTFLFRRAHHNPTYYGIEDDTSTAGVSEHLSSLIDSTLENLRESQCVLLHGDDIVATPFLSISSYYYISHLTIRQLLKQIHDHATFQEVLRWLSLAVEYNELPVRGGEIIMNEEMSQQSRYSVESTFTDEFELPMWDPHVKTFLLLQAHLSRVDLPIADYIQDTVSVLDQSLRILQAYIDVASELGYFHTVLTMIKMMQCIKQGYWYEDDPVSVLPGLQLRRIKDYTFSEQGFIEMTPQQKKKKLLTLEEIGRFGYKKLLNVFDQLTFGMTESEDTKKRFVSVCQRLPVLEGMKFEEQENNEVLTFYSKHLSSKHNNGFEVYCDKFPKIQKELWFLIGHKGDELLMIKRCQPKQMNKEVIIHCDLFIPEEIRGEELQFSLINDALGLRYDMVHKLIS
UniProt P53137: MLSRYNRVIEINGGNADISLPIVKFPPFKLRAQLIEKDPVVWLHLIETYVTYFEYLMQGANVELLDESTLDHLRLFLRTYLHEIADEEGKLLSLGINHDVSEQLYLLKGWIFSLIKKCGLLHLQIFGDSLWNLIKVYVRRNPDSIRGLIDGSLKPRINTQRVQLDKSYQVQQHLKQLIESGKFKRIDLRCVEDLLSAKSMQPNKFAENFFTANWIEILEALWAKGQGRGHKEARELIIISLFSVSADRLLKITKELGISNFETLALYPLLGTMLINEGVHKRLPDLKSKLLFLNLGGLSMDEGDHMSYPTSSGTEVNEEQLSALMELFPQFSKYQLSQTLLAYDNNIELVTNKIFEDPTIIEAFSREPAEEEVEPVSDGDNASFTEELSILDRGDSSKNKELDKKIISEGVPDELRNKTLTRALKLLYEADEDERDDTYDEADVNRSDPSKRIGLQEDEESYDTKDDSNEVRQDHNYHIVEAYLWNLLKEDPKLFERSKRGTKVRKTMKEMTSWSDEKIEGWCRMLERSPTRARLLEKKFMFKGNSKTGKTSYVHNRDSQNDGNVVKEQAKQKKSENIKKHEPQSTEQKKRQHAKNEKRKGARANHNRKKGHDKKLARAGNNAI

The target of this test is Slh1-Flag-TEV-protein A (S. cerevisiae) (UniProt P53327). Put plainly: pull-down; RQT factors or mutants co-expressed in yeast; complex captured from the lysate via Slh1-Flag-TEV-protein A on IgG beads in RQT-R buffer (50 mM Tris pH 7.5, 100 mM NaCl, 2.5 mM MgCl2, 0.1% NP-40, 10% glycerol, 100 mM L-arginine); co-purified factors seen by CBB staining or anti-Flag blot.

In the case of “CUE domain-deleted mutant of Cue3 (Flag-tagged) (from UniProt P53137)”, the binding entry is given as “binds”.
